Results reported in patent publication US20230073274A1 (NOVELMED THERAPEUTICS, published 2023).
Where a chain is given by its changes, count along the chain named. Results are given in words; binding and its absence hold for the method and conditions named. Some binding calls cover weakened binding; strength is not graded here.

Chains of the proteins cited; added tags and fusions are not shown. Residues count along the entry.
UniProt P27918, residues 28-469: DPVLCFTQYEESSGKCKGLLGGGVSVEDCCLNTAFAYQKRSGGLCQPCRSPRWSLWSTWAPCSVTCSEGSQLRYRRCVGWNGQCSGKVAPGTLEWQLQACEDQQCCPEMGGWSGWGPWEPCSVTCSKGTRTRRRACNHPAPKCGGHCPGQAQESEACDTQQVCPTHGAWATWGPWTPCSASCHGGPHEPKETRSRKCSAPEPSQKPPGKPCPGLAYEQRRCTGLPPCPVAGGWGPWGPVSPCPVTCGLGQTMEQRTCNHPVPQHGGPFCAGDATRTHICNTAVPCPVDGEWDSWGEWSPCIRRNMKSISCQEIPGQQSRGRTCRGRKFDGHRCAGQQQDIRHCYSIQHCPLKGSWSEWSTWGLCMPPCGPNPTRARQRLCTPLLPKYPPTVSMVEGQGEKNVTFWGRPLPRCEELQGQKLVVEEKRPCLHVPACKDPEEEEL

Experiments:
human properdin [1] = biological target: T1, human properdin (human, UniProt P27918 28-469); test: ELISA, human properdin coated on plate (FIG. 20)
human properdin [2] = biological target: T1, human properdin; test: ELISA, human properdin coated on the plate, OD 450 nm
human properdin [3] = biological target: T1, human properdin; test: ELISA, properdin coated on the plate, OD 450 nm
human properdin [4] = biological target: T1, human properdin; test: ELISA on properdin (sheet title: Potency Binding; axes without labels)
human properdin [5] = biological target: T1, human properdin; test: properdin binding assay (FIG. 31)
human properdin [6] = biological target: T1, human properdin; test: properdin binding assay (FIG. 36)
human properdin [7] = biological target: T1, human properdin; test: properdin binding assay, comparison of Fc regions (FIG. 40)

Measured: binding

B1: NMT15 (antibody, V domains shown)
VH: QVQLVQSAPEVAKPGTSVKMSCKASGYIFTNYPIHWVKQAPGQGLEWIGFIDPGGGYDEPDERFRDRATLTADKSTSTAYMELSSLRSEDTAIYYCARRGGGYYLDYWGQGTLVTVSS
VL: DIQMTQSPSSLSASLGDRVTITCRASQDISFFLNWYQQKPDGTVKLLIYYTSRYHSGVPSRFSGSGSGTDFTLTISSLQPEDFATYFCQHGNTLPWTFGQGTKLEIK
binds: human properdin [1] | human properdin [2]

B2: NMT28 (antibody, V domains shown)
VH: EVQLVQSGAEVKKPGASVKVSCKASGYIFTNYPIHWVRQAPGQGLEWMGFIDPGGGYDEPDERFRDRVTMTADTSTSTAYMELSSLRSEDTAVYYCARRGGGYYLDYWGQGTLVTVSS
VL: B1 VL with L15V, D41G, G42K, T43A, V44P, F87Y, N92Q, L104V
binds: human properdin [3] | human properdin [4] | human properdin [5]

B3: NMT28-100 (antibody, V domains shown)
VH: B2 VH
VL: B1 VL with L15V, D41G, G42K, T43A, V44P, F87Y, N92Q, L104V
binds: human properdin [3] | human properdin [6] | human properdin [7] | human properdin [4]

B4: NMT28-101 (antibody, V domains shown)
VH: B2 VH
VL: B1 VL with L15V, D41G, G42K, T43A, V44P, F87Y, N92Q, L104V
binds: human properdin [3] | human properdin [6] | human properdin [7] | human properdin [4]
